Results are given in words; binding and its absence hold for the method and conditions named. For some assays here: In cells and extracts the contact can be indirect. Some entries that bind do so weakly or less than the wild type. For some assays here: Sequences can lack the tags named with a protein.
Columns and labels:
syrian hamster (sh)BMAL1 = syrian hamster (sh)BMAL1 (syrian hamster, UniProt O88529 1-626); assay: yeast two-hybrid
mPER1-V5 (mouse) [1] = target: mPER1-V5 (mouse) (UniProt O35973); assay: co-immunoprecipitation from co-transfected COS7 cells, anti-HA IP, anti-V5 blot
mPER3-V5 (mouse) [2] = target: T1, mPER3-V5 (mouse) (UniProt O70361); assay: as above
T1 sequence (looked up): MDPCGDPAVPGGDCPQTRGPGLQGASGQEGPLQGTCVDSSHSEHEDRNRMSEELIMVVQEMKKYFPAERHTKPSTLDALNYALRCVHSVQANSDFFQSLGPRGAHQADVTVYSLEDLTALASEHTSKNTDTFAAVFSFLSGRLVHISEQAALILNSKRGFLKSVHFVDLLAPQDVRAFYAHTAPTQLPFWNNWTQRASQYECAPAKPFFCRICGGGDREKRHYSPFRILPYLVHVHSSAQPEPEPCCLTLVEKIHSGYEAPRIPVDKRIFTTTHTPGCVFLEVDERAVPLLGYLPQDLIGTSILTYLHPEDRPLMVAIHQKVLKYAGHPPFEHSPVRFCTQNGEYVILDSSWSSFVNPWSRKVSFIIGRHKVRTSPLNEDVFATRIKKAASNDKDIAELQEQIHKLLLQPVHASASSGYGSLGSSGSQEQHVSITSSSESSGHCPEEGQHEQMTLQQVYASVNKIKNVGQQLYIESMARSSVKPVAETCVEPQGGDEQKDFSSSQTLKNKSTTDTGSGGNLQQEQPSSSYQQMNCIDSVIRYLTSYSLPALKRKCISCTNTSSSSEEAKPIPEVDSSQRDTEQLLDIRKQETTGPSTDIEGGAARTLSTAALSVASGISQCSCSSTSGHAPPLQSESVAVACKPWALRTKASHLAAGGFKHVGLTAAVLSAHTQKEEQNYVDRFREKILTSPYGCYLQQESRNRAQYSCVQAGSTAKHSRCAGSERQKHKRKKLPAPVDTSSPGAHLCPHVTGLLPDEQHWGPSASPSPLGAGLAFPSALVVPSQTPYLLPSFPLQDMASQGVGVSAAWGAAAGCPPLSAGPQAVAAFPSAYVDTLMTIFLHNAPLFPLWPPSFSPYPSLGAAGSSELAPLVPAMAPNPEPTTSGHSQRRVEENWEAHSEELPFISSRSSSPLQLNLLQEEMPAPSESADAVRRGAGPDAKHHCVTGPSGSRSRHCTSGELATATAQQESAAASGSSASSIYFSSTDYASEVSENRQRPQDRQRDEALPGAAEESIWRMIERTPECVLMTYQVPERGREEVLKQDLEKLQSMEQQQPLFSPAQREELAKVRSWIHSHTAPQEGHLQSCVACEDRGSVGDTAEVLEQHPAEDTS

Amino acid sequences for entries named in this document (tags omitted).
UniProt O88529: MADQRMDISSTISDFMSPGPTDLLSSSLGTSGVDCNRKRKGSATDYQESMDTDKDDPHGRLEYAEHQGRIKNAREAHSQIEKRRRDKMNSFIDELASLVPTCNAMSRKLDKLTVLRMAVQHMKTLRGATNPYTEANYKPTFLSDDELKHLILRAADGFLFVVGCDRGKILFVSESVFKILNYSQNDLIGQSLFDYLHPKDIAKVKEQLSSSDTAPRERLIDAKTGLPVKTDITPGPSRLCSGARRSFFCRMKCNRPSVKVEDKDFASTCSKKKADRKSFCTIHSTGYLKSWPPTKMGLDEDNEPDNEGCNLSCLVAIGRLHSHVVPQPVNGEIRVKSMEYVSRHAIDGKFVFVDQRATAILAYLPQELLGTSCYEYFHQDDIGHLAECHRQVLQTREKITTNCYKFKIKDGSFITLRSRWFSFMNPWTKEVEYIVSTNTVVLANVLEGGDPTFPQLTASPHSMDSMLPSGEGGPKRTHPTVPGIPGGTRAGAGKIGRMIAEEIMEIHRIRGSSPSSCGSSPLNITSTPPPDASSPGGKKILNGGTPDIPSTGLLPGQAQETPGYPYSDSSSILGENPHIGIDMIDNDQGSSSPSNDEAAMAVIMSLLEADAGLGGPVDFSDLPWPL
UniProt O35973: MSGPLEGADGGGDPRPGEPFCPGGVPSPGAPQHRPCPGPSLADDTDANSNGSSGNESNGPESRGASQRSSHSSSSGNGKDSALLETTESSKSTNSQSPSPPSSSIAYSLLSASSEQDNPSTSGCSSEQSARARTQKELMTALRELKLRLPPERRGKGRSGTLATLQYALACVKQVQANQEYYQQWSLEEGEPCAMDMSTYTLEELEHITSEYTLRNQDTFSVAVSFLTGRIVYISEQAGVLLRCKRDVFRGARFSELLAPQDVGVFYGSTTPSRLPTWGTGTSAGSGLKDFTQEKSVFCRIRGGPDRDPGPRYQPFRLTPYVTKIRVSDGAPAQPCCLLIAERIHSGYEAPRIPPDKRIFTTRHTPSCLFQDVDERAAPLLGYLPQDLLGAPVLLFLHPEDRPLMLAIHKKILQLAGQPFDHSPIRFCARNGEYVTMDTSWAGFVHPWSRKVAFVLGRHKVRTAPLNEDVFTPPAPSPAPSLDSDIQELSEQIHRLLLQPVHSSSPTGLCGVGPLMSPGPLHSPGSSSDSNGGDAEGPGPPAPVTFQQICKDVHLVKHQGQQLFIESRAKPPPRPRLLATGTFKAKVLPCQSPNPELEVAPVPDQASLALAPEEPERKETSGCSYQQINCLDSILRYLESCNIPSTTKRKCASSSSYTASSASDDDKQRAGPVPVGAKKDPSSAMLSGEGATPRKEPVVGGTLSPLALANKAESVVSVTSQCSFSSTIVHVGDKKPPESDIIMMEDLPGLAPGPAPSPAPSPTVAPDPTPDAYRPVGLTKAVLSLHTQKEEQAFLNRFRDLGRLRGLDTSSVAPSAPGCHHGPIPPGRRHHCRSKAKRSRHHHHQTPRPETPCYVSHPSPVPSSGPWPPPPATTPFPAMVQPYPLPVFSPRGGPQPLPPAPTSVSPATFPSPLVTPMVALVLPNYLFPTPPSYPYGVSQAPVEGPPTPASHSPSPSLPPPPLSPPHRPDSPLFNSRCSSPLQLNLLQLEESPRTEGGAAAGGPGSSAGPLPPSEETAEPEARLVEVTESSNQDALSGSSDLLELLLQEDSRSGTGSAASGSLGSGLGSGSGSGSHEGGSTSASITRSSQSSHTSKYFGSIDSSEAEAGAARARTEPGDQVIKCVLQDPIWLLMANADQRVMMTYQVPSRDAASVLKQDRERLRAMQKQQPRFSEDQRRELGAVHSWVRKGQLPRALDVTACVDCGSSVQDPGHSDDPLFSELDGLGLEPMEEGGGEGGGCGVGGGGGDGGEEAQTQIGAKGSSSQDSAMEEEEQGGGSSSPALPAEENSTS

mPER1-V5 (mouse) [3] = target: mPER1-V5 (mouse) (UniProt O35973); assay: co-immunoprecipitation from co-transfected COS7 cells (conclusion of the example)
mPER3-V5 (mouse) [4] = target: T1, mPER3-V5 (mouse); assay: as above
mTIM-V5 [5] = target: T2, mTIM-V5 (mouse, UniProt Q9R1X4 1-1197); assay: as above
T2 construct: the construct was made from the coding region of AF071506; Printed once as 'mTIM-VS', read as V5; also called mTIM-VS
T2 sequence: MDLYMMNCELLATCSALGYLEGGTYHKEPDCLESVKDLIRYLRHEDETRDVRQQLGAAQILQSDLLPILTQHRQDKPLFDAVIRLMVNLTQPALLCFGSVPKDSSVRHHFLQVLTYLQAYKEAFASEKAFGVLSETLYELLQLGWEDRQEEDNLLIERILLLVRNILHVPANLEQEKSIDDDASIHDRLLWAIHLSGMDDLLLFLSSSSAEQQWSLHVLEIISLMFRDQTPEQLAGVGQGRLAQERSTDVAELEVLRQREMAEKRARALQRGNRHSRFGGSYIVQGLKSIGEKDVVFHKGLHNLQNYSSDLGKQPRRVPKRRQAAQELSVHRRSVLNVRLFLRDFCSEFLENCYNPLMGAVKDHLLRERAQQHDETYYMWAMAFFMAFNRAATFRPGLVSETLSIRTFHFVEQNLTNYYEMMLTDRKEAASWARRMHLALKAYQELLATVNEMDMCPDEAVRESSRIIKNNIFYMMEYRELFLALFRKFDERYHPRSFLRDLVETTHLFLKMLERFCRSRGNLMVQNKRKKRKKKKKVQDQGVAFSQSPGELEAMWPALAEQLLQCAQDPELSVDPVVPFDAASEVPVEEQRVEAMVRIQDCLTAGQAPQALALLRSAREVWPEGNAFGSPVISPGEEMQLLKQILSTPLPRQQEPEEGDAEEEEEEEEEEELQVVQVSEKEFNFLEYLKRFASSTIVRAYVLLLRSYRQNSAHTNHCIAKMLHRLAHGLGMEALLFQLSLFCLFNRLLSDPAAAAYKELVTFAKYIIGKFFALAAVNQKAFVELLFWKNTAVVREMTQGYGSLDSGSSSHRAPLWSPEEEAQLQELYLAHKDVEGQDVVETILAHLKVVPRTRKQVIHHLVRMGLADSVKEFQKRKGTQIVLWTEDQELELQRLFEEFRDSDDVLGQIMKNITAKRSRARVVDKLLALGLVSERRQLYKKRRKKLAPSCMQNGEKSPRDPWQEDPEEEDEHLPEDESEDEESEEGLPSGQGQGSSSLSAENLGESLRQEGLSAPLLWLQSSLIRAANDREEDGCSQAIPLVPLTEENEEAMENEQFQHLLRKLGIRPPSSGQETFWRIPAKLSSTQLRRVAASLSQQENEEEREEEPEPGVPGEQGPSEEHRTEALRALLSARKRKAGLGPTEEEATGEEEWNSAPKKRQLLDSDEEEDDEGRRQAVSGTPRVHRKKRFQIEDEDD

mTIM-V5 [6] = target: T2, mTIM-V5; assay: co-immunoprecipitation from co-transfected COS7 cells, anti-HA IP, anti-V5 blot
Experimental: Subsequently, the beads were washed four times (400 μl binding buffer for 10 min. per wash), mixed with 5 μl of 4×sodium dodecyl sulfate (SDS) gel loading buffer, boiled, and centrifuged. The supernatant was analyzed by SDS-polyacrylamide gel electrophoresis (PAGE) and western blotted as follows. Total protein (5 μg) from COS7 cells was extracted as described above, separated by SDS-PAGE, and transferred to a nitrocellulose membrane using a semi-dry blotting apparatus. Membranes were blocked with 5% non-fat milk. Blots were incubated with either the mouse anti-HA antibody (1:10,000) or the mouse anti-V5 antibody (1:5,000) overnight at 4EC. A goat anti-mouse horseradish peroxidase secondary antibody (1:10,000) was used in combination with enhanced chemiluminescence (NEN) to detect proteins.
Following detection of epitope-tagged proteins with one antibody, the blots were stripped in stripping buffer (62.5 mM Tris-HCl (pH 6.7), 100 mM 2-mercaptoethanol, 2% SDS) at 50EC for 30 minutes. The membrane was washed extensively (20 mM Tris, pH 7.6, 137 mM NaCl, 0.05% Tween-20) then blocked again and processed for detection of the second epitope-tagged protein.

mPER1-V5 (mouse) [7] = target: mPER1-V5 (mouse) (UniProt O35973); assay: as above; remark: listed apart in the source
mPER3-V5 (mouse) [8] = target: T1, mPER3-V5 (mouse); assay: as above; remark: listed apart in the source

Measured: binding

mCRY1 (from UniProt P97784 1-606)
binds: syrian hamster (sh)BMAL1

B1: mCRY1-HA (other, mouse, UniProt P97784 1-606, looked up, not shown: small tags and cut ends)
chain: MGVNAVHWFRKGLRLHDNPALKECIQGADTIRCVYILDPWFAGSSNVGINRWRFLLQCLEDLDANLRKLNSRLFVIRGQPADVFPRLFKEWNITKLSIEYDSEPFGKERDAAIKKLATEAGVEVIVRISHTLYDLDKIIELNGGQPPLTYKRFQTLVSKMEPLEMPADTITSDVIGKCMTPLSDDHDEKYGVPSLEELGFDTDGLSSAVWPGGETEALTRLERHLERKAWVANFERPRMNANSLLASPTGLSPYLRFGCLSCRLFYFKLTDLYKKVKKNSSPPLSLYGQLLWREFFYTAATNNPRFDKMEGNPICVQIPWDKNPEALAKWAEGRTGFPWIDAIMTQLRQEGWIHHLARHAVACFLTRGDLWISWEEGMKVFEELLLDADWSINAGSWMWLSCSSFFQQFFHCYCPVGFGRRTDPNGDYIRRYLPVLRGFPAKYIYDPWNAPEGIQKVAKCLIGVNYPKPMVNHAEASRLNIERMKQIYQQLSRYRGLGLLASVPSNSNGNGGLMGYAPGENVPSCSSSGNGGLMGYAPGENVPSCSGGNCSQGSGILHYAHGDSQQTHSLKQGRSSAGTGLSSGKRPSQEEDAQSVGPKVQRQSSN
not listed: syrian hamster (sh)BMAL1 | mPER1-V5 (mouse) [7] | mPER3-V5 (mouse) [8]
binds: all other assays above

B2: mCRY2-HA (protein, mouse, UniProt Q9R194 1-592, looked up, not shown: small tags and cut ends)
chain: MAAAAVVAATVPAQSMGADGASSVHWFRKGLRLHDNPALLAAVRGARCVRCVYILDPWFAASSSVGINRWRFLLQSLEDLDTSLRKLNSRLFVVRGQPADVFPRLFKEWGVTRLTFEYDSEPFGKERDAAIMKMAKEAGVEVVTENSHTLYDLDRIIELNGQKPPLTYKRFQALISRMELPKKPAVAVSSQQMESCRAEIQENHDDTYGVPSLEELGFPTEGLGPAVWQGGETEALARLDKHLERKAWVANYERPRMNANSLLASPTGLSPYLRFGCLSCRLFYYRLWDLYKKVKRNSTPPLSLFGQLLWREFFYTAATNNPRFDRMEGNPICIQIPWDRNPEALAKWAEGKTGFPWIDAIMTQLRQEGWIHHLARHAVACFLTRGDLWVSWESGVRVFDELLLDADFSVNAGSWMWLSCSAFFQQFFHCYCPVGFGRRTDPSGDYIRRYLPKLKGFPSRYIYEPWNAPESVQKAAKCIIGVDYPRPIVNHAETSRLNIERMKQIYQQLSRYRGLCLLASVPSCVEDLSHPVAEPGSSQAGSISNTGPRALSSGPASPKRKLEAAEEPPGEELTKRARVTEMPTQEPASKDS
not listed: syrian hamster (sh)BMAL1 | mPER1-V5 (mouse) [1] | mPER3-V5 (mouse) [2]
binds: all other assays above

B3: mCRY2 (protein, mouse, UniProt Q9R194 1-592, looked up)
chain: B2 chain
binds: syrian hamster (sh)BMAL1

From patent US6475744 (GENERAL HOSPITAL CORPORATION A MASSACHUSETTS, dated 2002)
